Experimental data: paper doi:10.1101/2023.10.13.562240
These are yes or no findings as the source states them, for the method shown. Binding seen in cells or lysates may run through a third protein. Some entries that bind do so weakly or less than the wild type.

Protein sequences, listed by entry. Tags and fused reporters are not part of them.
UniProt Q9C0C7: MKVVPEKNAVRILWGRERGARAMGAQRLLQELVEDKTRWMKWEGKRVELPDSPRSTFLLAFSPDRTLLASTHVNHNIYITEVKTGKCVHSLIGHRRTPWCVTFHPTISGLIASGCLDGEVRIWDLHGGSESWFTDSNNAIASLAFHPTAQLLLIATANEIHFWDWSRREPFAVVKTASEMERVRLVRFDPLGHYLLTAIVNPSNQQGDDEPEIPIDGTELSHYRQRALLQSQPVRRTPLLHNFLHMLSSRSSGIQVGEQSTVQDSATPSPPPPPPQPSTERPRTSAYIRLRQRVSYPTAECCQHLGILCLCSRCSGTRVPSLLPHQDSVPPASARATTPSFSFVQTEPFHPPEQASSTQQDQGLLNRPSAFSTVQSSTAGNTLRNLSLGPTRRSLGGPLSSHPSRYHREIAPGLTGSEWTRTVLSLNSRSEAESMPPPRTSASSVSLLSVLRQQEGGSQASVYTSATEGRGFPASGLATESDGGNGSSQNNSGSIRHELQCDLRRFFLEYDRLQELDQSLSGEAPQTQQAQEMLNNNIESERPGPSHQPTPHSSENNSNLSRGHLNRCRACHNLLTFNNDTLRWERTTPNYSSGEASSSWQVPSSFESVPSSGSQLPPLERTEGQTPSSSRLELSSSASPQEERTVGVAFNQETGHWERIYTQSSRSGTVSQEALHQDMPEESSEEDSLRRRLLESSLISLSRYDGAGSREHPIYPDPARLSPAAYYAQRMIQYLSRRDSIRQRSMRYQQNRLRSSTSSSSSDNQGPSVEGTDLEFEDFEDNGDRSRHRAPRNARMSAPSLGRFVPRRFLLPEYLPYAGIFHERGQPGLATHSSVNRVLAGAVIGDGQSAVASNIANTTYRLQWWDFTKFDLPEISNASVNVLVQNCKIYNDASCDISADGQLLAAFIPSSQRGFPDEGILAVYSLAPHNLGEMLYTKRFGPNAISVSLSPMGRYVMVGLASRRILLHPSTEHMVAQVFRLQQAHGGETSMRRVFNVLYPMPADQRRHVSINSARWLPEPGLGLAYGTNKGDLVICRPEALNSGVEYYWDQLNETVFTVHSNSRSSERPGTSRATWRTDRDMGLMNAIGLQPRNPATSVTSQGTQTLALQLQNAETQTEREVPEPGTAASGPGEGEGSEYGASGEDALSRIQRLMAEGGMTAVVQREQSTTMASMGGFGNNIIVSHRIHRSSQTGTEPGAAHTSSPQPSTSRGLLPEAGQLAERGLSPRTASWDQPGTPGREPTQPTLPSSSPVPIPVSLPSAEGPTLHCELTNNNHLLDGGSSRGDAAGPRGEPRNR
UniProt P63167: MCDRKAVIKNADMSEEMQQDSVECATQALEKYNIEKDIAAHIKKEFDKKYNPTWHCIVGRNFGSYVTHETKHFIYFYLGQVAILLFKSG

Target: Activating molecule in Beclin1-regulated autophagy (AMBRA1), wild type (UniProt Q9C0C7)
Assay: co-IP

binding: binds
Substance: dynein light chain (DLC)1 (from UniProt P63167 1-89)
